System: Human Jurkat T-cells (clone N)
Experiment: Jurkat T-cell activation (anti-TCR, CD69 upregulation)
Type: cell-based
Procedure: The screening process took place over three days.
On the first day of the screen, cultured cells were spun down on a centrifuge (1000 rpm, 5 minutes) and resuspended at 3.0×10^5 cells/ml in RPMI+5% FBS. On the second day of the screen, cells were spun down at 1000 rpm for 5 minutes and resuspended in RPMI+5% FBS at 1.3×10^5 cells/ml. 85 μl of this cell suspension were added to the wells of U-bottom 96 well plates (Corning) 85 μl of compound or diluted RPMI+5% FBS (as a control) only was added to each well and incubated at 37° C. for 1 hour. The cells were then stimulated with anti-TCR (C305) at: 500 ng/ml by adding a 8× solution in 25 μl to the plated cells. The cells were then incubated at 37° C. for 20 hrs.
On the third day of the screen, the plates were spun at 2500 RPM for 1 minute on a Beckman GS-6R centrifuge, and the medium was then removed. 50 μl staining solution (1:100 dilution of anti-CD69-APC antibody (Becton Dickenson) in PBS+2% FBS) was then added to each well, followed by incubation of the plates 4 degrees for 20 minutes in the dark. 150 μl of wash buffer (PBS+2% FBS) was then added to each well, and the plates were spun at 3000 RPM for 1 minute. The supernatant was again removed, and the pellet was resuspended by vortexing gently. […] Cells from the plates were read using a flow cytometer coupled to an automated liquid handling system. […]

IC50: > 10 µM
Compound: COc1ccc(Nc2nc(Cl)ncc2F)c(OC)n1 [Compound R926889]

From patent US8158621B2, “Methods of treating or preventing autoimmune diseases with 2,4-pyrimidinediamine compounds” (Rigel Pharmaceuticals, Inc., priority 2002, dated 2012)
